Laboratory results taken from publication PMC10022624, “A mini-TGA protein modulates gene expression through heterogeneous association with transcription factors” (Plant Physiology, 2022).

Columns and labels:
[1] = molecular target: StTGA2.2, yeast two-hybrid bait fusion (potato (Solanum tuberosum)); assay: two-hybrid; Matchmaker Gold, Y2H Gold strain; bait pGBKT7 (BD), prey pGADT7 (AD); growth on SD -L-W-H-A + Xgal + Aur; for the StNPRs dilutions spotted also on media with 0.1 mM or 1.0 mM SA, which promoted the interactions
[2] = molecular target: StTGA2.3, yeast two-hybrid bait fusion (potato (Solanum tuberosum)); assay: as above

StNPR1, yeast two-hybrid fusion (from UniProt A0A9F1UC91)
binding [1]: binds
binding [2]: binds

These are yes or no findings as the source states them, for the method shown. Binding can be weak; no strength is given.
